# This is one part of the list. The main result of the screen is listed elsewhere. These columns were measured beside it and carry no call. The list favours compounds with an active or inconclusive main result. The note in brackets gives the kind of curve behind each potency; many fits are weak.
# Test: IkB Signaling
# Conditions: ABC-DLBCL IkBa-CBG/CBR dual luciferase ratio (green luciferase fused to IkBa over red control in OCI-Ly3 lymphoma cells), 4 h
# Procedure, shortened: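 Luminescence ratio of IκBα-fused green versus native red beetle luciferase in OCI-Ly3 cells, 4 h post-doxycycline with compound; red signal alone, scaled from basal (0%) to zero light (-100%), flagged nonspecific or cytotoxic effects.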
# [1] = measured here: control luc red channel unless noted
smiles,measurement,setting,value
COc1ccc(CNS(=O)(=O)c2cc3c(cc2Cl)NC(=O)CO3)cc1,AC50,[1],"15.8 µM [falling, partial curve]"
COc1ccccc1N=c1oc2cc(O)ccc2cc1C(N)=O,AC50,[1],"0.158 µM [falling, full curve]"
CCC(=O)Oc1c(Sc2ccc(C)cc2)c(C)nn1-c1ccccc1,AC50,[1],"6.31 µM [falling, full curve]"
CCOC(=O)c1cccc(NC(=O)CSc2nnc(COc3ccccc3)n2CC)c1,AC50,measured here: IkB-luc green channel,"31.6 µM [falling, partial curve]"
same,AC50,measured here: control luc red channel,"10 µM [falling, partial curve]"
CC(C)(C)c1cc(/C=C(\C#N)C(N)=S)cc(C(C)(C)C)c1O,AC50,[1],"1.58 µM [falling, full curve, poor fit]"
O=C(CSc1nc(=O)n(CCN2CCOCC2)c2c1CCC2)Nc1ccc(F)cc1F,AC50,[1],"5.01 µM [rising, single point]"
Cc1c(Cl)cccc1NC(=O)CSc1nc(=O)[nH]c2c1CCC2,AC50,[1],"20 µM [falling, single point]"
Cc1c2cnn(-c3ccccc3)c(=O)c2c(C)n1CCCC(=O)Nc1cccc(F)c1,AC50,[1],"25.1 µM [falling, partial curve]"
COc1ccc(CN(Cc2ccco2)C(=O)COc2ccccc2Cl)cc1,AC50,[1],"20 µM [falling, partial curve]"
COc1cccc(-n2c(SCC(=O)Nc3ccc4c(c3)OCO4)nc3c([nH]c4ccccc43)c2=O)c1,AC50,[1],"0.00631 µM [falling, full curve, poor fit]"
COc1cc(C2c3c(-c4cc(C)ccc4O)n[nH]c3C(=O)N2Cc2ccco2)cc(OC)c1OC (stereo unspecified),AC50,[1],"39.8 µM [falling, single point]"
O=C(O)c1ccc(COc2ccc(CO)cc2Cl)cc1,AC50,[1],"12.6 µM [falling, partial curve]"
CCCc1nn2c(=O)cc(COC(=O)c3cccc(NC(=O)c4ccc(OCC)cc4)c3)nc2s1,AC50,[1],"0.251 µM [falling, full curve]"
Cc1cc(Cl)ccc1NS(=O)(=O)c1c(C(=O)N2CCCCCC2)c(C)n(C)c1C,AC50,[1],"20 µM [falling, partial curve, poor fit]"
Cc1ccc(-c2csc3ncnc(Sc4nnc(CN5CCCCCC5=O)o4)c23)cc1,AC50,[1],"6.31 µM [falling, partial curve]"
COC(=O)c1c(-c2ccc(Cl)cc2)noc1N1CCN(c2ccccc2OC)CC1,AC50,[1],"3.16 µM [falling, partial curve]"
COc1ccccc1S(=O)(=O)Cc1ccc(C(=O)N2CCN(c3cc(Cl)ccc3C)CC2)o1,AC50,[1],"15.8 µM [falling, partial curve]"
O=C(NCCc1ccccc1)c1ccc2nc(CCc3ccccc3)oc2c1,AC50,[1],"3.98 µM [rising, single point]"
COc1cc(C2CC(=O)Nc3ccc4ccccc4c32)ccc1OC(=O)C(C)C (stereo unspecified),AC50,[1],"39.8 µM [falling, partial curve]"
CC(C)(C)n1ncc2c(=O)n(Cc3c(F)cccc3Cl)cnc21,AC50,[1],"31.6 µM [falling, partial curve]"
CCCCn1c(CCCNC(=O)c2cccc(C)c2)nc2ccccc21,AC50,[1],"15.8 µM [falling, partial curve]"
Cc1nc2cc(-c3cccc(F)c3)nn2c(C)c1CCC(=O)Nc1ccccc1C(N)=O,AC50,[1],"1.26 µM [falling, partial curve]"
Cc1ccccc1-c1nnc(SCC(=O)Nc2ccc(Cl)cc2)n1N,AC50,[1],"20 µM [falling, partial curve]"
O=C1C(=C2CCCCC2)SC(=S)N1Cc1ccco1,AC50,[1],"20 µM [falling, partial curve]"
CCCCOc1ccccc1C(=O)N(Cc1sccc1C)C1CCS(=O)(=O)C1 (stereo unspecified),AC50,[1],"39.8 µM [falling, single point]"
CCOc1ccc(NC(=O)CSc2c3c(nc4ccccc24)CCCC3)cc1,AC50,[1],"5.01 µM [falling, partial curve]"
CC(C)(C)c1ccc(C(=O)N2CCCC(c3nc4c(nnn4Cc4cccc(F)c4)c(=O)[nH]3)C2)cc1 (stereo unspecified),AC50,[1],"15.8 µM [falling, partial curve]"
COc1ccc(N2CCN(Cc3nc4c(c(=O)n(C)c(=O)n4C)n3C(C)C)CC2)cc1,AC50,[1],"0.0631 µM [falling, full curve]"
CN(C)CCCn1c(-c2ccc(Cl)cc2)csc1=Nc1ccccc1,AC50,[1],"12.6 µM [falling, partial curve]"
Cc1ccc2nc(CN3CCN(S(=O)(=O)c4ccc(C(C)C)cc4)CC3)oc2c1,AC50,[1],"5.01 µM [falling, full curve]"
Cc1ccc(C(=O)CSc2nnc(COc3cccc4cccnc34)o2)cc1,AC50,[1],"25.1 µM [falling, partial curve]"
CN1CCN(C2=C(Cl)C(=O)N(c3ccc(Cl)cc3)C2=O)CC1,AC50,[1],"3.98 µM [falling, partial curve]"
Cc1cc(O)c(C(c2ccccc2)N2CCN(c3ccc(F)cc3)CC2)c(=O)n1Cc1ccco1 (stereo unspecified),AC50,[1],"6.31 µM [falling, partial curve, poor fit]"
Cc1cccc(CNc2ncnc3ccc(-c4c(C)noc4C)cc23)c1,AC50,[1],"316 nM [rising, full curve, poor fit] [measured here: IkB-luc green channel]"
Cc1ccc(-n2c(CCC(=O)O)ccc2-c2cccs2)cc1Cl,AC50,[1],"25.1 µM [falling, single point]"
CCc1ccc(C(=O)CC2(O)C(=O)N(Cc3ccc(C)cc3)c3ccccc32)cc1 (stereo unspecified),AC50,[1],"15.8 µM [falling, partial curve]"
CC(C)c1nc2ccc(C(=O)NCc3ccccc3Br)cc2o1,AC50,[1],"39.8 µM [falling, single point]"
CC(C)OCCCN1C(=O)c2[nH]nc(-c3ccccc3O)c2C1c1ccccc1F (stereo unspecified),AC50,[1],"39.8 µM [falling, single point]"
CCOc1ccccc1N1CC(c2nc3ccccc3n2CCCOc2ccc(OC)cc2)CC1=O (stereo unspecified),AC50,[1],"15.8 µM [falling, partial curve]"
COc1ccc2nc(NC(=O)CN(c3ccc(C)cc3)S(=O)(=O)c3c(C)nn(C)c3C)sc2c1,AC50,[1],"10 µM [falling, partial curve]"

# 2 records drawn at random from the list so far, as already listed:
smiles,measurement,setting,value
O=C(NCCc1ccccc1)c1ccc2nc(CCc3ccccc3)oc2c1,AC50,[1],"3.98 µM [rising, single point]"
CC(C)OCCCN1C(=O)c2[nH]nc(-c3ccccc3O)c2C1c1ccccc1F (stereo unspecified),AC50,[1],"39.8 µM [falling, single point]"
